Measured values reported in article PMC4619656.
These are yes or no findings as the source states them, for the method shown. Binding seen in cells or lysates may run through a third protein. Some results given as binding are weak or reduced against the parent protein; the word gives no strength.

The chains behind the UniProt entries cited, without tags or fusion partners.
UniProt Q96KQ7: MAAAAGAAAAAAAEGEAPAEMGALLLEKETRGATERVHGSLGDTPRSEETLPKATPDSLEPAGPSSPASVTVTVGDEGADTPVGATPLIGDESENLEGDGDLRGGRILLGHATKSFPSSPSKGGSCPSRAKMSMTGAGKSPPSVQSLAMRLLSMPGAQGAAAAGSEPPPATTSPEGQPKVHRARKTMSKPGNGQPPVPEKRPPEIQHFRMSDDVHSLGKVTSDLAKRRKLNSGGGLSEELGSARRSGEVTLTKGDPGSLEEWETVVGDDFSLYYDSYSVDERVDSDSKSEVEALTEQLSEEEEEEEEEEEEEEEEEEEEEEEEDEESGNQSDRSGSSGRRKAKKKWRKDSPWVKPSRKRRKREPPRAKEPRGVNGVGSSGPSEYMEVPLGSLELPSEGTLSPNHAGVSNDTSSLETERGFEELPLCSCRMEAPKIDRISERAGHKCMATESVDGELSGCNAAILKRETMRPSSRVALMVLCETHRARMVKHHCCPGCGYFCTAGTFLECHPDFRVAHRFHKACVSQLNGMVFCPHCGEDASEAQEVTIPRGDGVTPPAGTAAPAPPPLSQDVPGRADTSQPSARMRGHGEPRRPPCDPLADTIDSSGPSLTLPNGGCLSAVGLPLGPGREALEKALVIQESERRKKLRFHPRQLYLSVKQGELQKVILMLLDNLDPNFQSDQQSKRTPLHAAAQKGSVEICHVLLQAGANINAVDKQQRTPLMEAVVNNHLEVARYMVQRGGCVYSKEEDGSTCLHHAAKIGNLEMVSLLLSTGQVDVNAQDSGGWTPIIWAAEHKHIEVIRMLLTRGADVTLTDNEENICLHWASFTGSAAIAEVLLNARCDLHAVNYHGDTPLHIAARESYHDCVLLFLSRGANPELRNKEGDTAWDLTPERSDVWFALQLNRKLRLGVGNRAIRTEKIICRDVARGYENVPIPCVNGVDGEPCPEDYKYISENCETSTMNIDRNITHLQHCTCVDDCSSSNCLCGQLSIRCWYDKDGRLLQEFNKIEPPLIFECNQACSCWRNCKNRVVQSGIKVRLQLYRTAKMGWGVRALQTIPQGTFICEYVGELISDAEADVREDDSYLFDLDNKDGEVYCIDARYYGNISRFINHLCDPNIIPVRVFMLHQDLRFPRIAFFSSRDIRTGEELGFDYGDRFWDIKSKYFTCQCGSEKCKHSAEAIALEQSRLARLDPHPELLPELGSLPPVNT
UniProt P48431: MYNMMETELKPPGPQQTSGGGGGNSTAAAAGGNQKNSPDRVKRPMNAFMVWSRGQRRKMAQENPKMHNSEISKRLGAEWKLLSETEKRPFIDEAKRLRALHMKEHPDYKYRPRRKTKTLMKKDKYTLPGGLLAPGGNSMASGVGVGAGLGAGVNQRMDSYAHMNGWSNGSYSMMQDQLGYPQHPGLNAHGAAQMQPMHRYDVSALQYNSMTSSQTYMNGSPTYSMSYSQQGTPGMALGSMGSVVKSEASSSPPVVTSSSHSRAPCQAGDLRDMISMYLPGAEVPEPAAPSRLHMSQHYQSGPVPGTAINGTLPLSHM

How the values were obtained:
[1] = target: Lysine methyltransferase G9a (human (endogenous in MCF7)) (UniProt Q96KQ7); assay: co-IP; endogenous proteins in MCF7 total protein extract (500 ug); Co-IP buffer 20 mM Tris-HCl, 137 mM NaCl, 1% Triton X-100, 2 mM EDTA; immunoprecipitated with anti-Sox2 or anti-G9a antibody overnight at 4°C, protein A/G-plus beads, Western blot
[2] = target: Sox2 (human (endogenous in MCF7)) (UniProt P48431); assay: as above

Sox2 (from UniProt P48431 1-317)
binding [1]: binds

Lysine methyltransferase G9a (from UniProt Q96KQ7 1-1210)
binding [2]: binds
